Results reported in patent publication US20170371042A1, “CONTRAST AGENT FOR OPTICAL IMAGING, USE THEREOF AND APPARATUS USING THE SAME” (KYUNGPOOK NATIONAL UNIVERSITY INDUSTRY- ACADEMIC …, priority 2009, published 2017).
“Also recorded” adds a separate entry of the source. Some compounds share one wording; it may come from a single statement.

What was measured:
[1] = Comparison of luminescence intensities between [^18F]FDG and free [^18F]KF ion (luminometer); assay type: physicochemical; conditions: similar radioactivity in 300 μL aqueous solution, in vitro luminometer
[2] = In vitro luminometric assay of radionuclide solutions; assay type: physicochemical; conditions: for Relative intensity (in vitro luminometer): luminescence signal of ^131I set to 1, slope of line of best fit, 470 nm; for increase in light signal with increasing activity: in vitro luminometer, consecutively diluted concentrations
[3] = In vitro luminescence imaging (IVIS 200) of radionuclide solutions in 96-well plate; assay type: physicochemical; conditions: for luminescence signal strength among five radioisotopes (IVIS 200 image): 96-well plate, 300 μL aqueous solution, similar activity concentrations, 1 minute scan; for Relative intensity (IVIS200): values in parentheses, calculated from IVIS 200 data, ^131I = 1; for activity concentration at which light was detected by luminescence imaging: 300 μL of water, ^68Ga detected clearly up to this, ^99mTc only very faint light at this
[4] = Tissue penetration of Cerenkov imaging, injection into back muscle; assay type: in vivo, Sprague-Dawley rats
[5] = Spatial resolution of Cerenkov imaging with Derenzo phantom; assay type: physicochemical; conditions: 32 μCi/mL ^124I solution

Compound | Relative intensity (in vitro luminometer) [2] | luminescence signal strength among five radioisotopes (IVIS 200 image) [3] | Relative intensity (IVIS200) [3] | increase in light signal with increasing activity [2] | also measured
[18F-].[K+] [[^18F]KF] | – | – | – | – | difference in luminescence between chemical forms [1]: no significant difference in luminescence
OC[C@H]1OC(O)[C@H]([18F])[C@@H](O)[C@@H]1O (stereo partly drawn) [^18F, [^18F]FDG] | 2.0 | third strongest luminescence signals | (1.7) | – | difference in luminescence between chemical forms [1]: no significant difference in luminescence
CSCC[C@H](N)C(=O)O [^35S, [^35S]methionine] | 0.02 | – | – | much slower increase in light signal; also recorded: did not show any noticeable increase in luminescence even at the highest activity | –
[64Cu+2].[Cl-].[Cl-] [^64Cu, [^64Cu]CuCl2] | 0.8 | – | – | – | –
[68Ga+3].[Cl-].[Cl-].[Cl-] [^68Ga, [^68Ga]GaCl3] | – | – | (24.2) | – | activity concentration at which light was detected by luminescence imaging [3]: 0.5 μCi/mL; relative intensity of ^68Ga versus ^124I ([3]; ratio of relative luminescence intensities): more than 4 times
[Cl][111In]([Cl])[Cl] [^111In, [^111In]InCl3] | 0.1 | – | – | much slower increase in light signal | –
[124I-].[Na+] [^124I, [^124I]NaI] | 5.1 | second | (6.2) | – | lowest concentration detected by Cerenkov luminescence ([4]; 10 μL injected at depth of 4 mm, imaging 1 minute): 0.3 μCi/μL; minimum activity for detection by Cerenkov luminescence ([4]; 10 μL injected at depth of 7 mm, scan time 1 min): 1 μCi/μL; lowest concentration detected by Cerenkov luminescence ([4]; depth of 4 mm, longer scan time): 0.1 μCi/μL; spatial resolution, Cerenkov imaging, each source clearly identified ([5]; 1 minute): 1.6 mm; spatial resolution, Cerenkov imaging, some sources separated from nearby sources ([5]; 1 minute): 1.2 mm; maximum spatial resolution, microPET imaging ([5]; 20 minutes): 2.4 mm
[131I-].[Na+] [^131I, [^131I]NaI] | 1 | sufficiently detectable light signal | (1) | – | –
[^99mTc]TcO4^− | 0.04 | did not show any detectable light signal | – | much slower increase in light signal | activity concentration at which light was detected by luminescence imaging [3]: 2.9×10^3 μCi/mL; only concentration that emitted very faint light ([3]; sequentially diluted solutions, 300 μL/well, 5 minutes): 2.9 mCi/mL
